This is one part of the list.

The target of the experiment is T1, OsSMF1 (Oryza sativa, UniProt Q6ZLB0 1-436).
T1 sequence: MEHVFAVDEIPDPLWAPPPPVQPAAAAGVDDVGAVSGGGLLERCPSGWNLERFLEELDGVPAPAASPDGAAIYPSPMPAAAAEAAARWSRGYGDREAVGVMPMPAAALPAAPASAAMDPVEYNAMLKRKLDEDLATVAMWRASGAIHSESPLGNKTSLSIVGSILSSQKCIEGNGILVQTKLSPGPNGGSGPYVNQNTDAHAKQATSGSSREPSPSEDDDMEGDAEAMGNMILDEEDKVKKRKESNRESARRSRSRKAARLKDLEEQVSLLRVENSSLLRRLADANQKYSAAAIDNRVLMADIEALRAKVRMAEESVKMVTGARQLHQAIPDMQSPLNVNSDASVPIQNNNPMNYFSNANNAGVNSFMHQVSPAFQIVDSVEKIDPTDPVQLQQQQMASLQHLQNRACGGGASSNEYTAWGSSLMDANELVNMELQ
Description: protein-binding microarray (RPBM); PBS, 2% BSA, 51.3 ng/ul salmon testes DNA, 50 uM zinc acetate, 200 nM TF, 25 C, 1 h; high values mean tight binding. The conditions noted are these: protein: recombinant; tags: N-terminal polyhistidine and DsRed monomer fusion (pET32a); chain copies: 2; label: CyDye5-dUTP incorporated in the synthesized complementary strand; 3' TTTTT single-stranded linker to array surface; dsDNA, one strand shown. In short, it runs like this:
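Transcription factors, each fused N-terminally to a polyhistidine tag and DsRed, were expressed in E. coli BL21-CodonPlus and purified on Ni–NTA. A custom Agilent array was made double-stranded by primer extension with Cy5-dUTP and blocked with 2% BSA. It was incubated with 200 nM protein in PBS, 2% BSA, salmon testes DNA and 50 µM zinc acetate at 25 °C for 1 h, then washed. The binding signal is per-feature fluorescence intensity (arbitrary units) read on an Axon 4000B scanner.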
In the case of “AGCGACGAGTAAACAAAGCGCGGCGTAGCATGTGATGTGGCGGAGTCACCTAGTGCAG”, the binding signal is 4440 fluorescence intensity (a.u.). As for “GTCTCGTCGGGTGCGTGGCGTGCGGGGTGCTGCGTTGCCGCGGAGTCACCTAGTGCAG”, the binding signal is 6440 fluorescence intensity (a.u.). The result for “GGATCGGCAATGTCAGCAGCTGCTCACTTGCTCGCATGCCCGGAGTCACCTAGTGCAG” reads 3740 fluorescence intensity (a.u.); that for “GGGGTGCTGTTGCTGCGTGCCTGCGTGTACGTCGTTTGGTCGGAGTCACCTAGTGCAG”, 6600 fluorescence intensity (a.u.). The result for “CTGGTCCCACTTGTCATACACACACTGTCTTTGAATCCGTCGGAGTCACCTAGTGCAG” reads 3180 fluorescence intensity (a.u.); that for “TTTCTGATGATTGCATGCACGTCTTGCTGGCTCATCCATGCGGAGTCACCTAGTGCAG”, 3830 fluorescence intensity (a.u.); that for “CTGAAATTTCCAATCATCTTGCGTGTGCAAGACAGCAAAGCGGAGTCACCTAGTGCAG”, 3530 fluorescence intensity (a.u.). Consider “CTATATACCCACATAGTTGGTTTATCGGACTGGTTATAGGCGGAGTCACCTAGTGCAG”, for which the binding signal was 19200 fluorescence intensity (a.u.). With “TCTTGTTGCTTGTGTCACCTCCTTTTGTCTTCTACCCGAGCGGAGTCACCTAGTGCAG” the figure was 4870 fluorescence intensity (a.u.); with “CGAGGCGCCGTGCGCCGACGGCGGCGTCATCGTCGAGGGACGGAGTCACCTAGTGCAG”, 3260 fluorescence intensity (a.u.). With “AGTATGCTTTTCAAACCGCTAAATGGTACATTTCATGCAACGGAGTCACCTAGTGCAG” the figure was 4720 fluorescence intensity (a.u.).

On to “GCATGCACAGTTGATTTTCTTTGATTGATTTGTTTGCACTCGGAGTCACCTAGTGCAG”, for which the binding signal was 12900 fluorescence intensity (a.u.). With “GTGGTACGGTACACATCTTGCGTGCGTCACACCTTATCCACGGAGTCACCTAGTGCAG” the figure was 6120 fluorescence intensity (a.u.); with “AACGGAACACATGTTGTTGTAGTACGTCATTGAGATTGAGCGGAGTCACCTAGTGCAG”, 5920 fluorescence intensity (a.u.); with “TGCTATAGGGGCTGGGGTGGCAGGCAGCGCACGGATCTGCCGGAGTCACCTAGTGCAG”, 3340 fluorescence intensity (a.u.). On to “CCCACGATAAAATTTTCATGATACAGTTATCCTGTCACGACGGAGTCACCTAGTGCAG”, for which the binding signal is 4000 fluorescence intensity (a.u.). The result for “TCCATAAACGTTTTATCACATGTGCATCTATTTTGCCATGCGGAGTCACCTAGTGCAG” reads 3390 fluorescence intensity (a.u.); that for “ATCCCTTTGCCTAGTCAGGCTTCAACTCGATAGTCTTCTCCGGAGTCACCTAGTGCAG”, 4900 fluorescence intensity (a.u.). Consider “GGGTAGGGTGTACGTGTGTGCGTTTATAGGGGTGAGTGTGCGGAGTCACCTAGTGCAG”, for which the binding signal was 3640 fluorescence intensity (a.u.). The result for “TACATAGCCTCAAATTATGTGACACGGTGCCAATGTGCCACGGAGTCACCTAGTGCAG” reads 5620 fluorescence intensity (a.u.); that for “AAGTGGCTTCAGATCAGCGTAGTAGTTGTAAGGGTATCCTCGGAGTCACCTAGTGCAG”, 3710 fluorescence intensity (a.u.); that for “TACAACTGTACAAAATTACGCCGTATCTTTCCCTTGTCTGCGGAGTCACCTAGTGCAG”, 3300 fluorescence intensity (a.u.).

With “CTCCCTTTTGATGAGTAGGATGATCCACTCGACTCTAAGCCGGAGTCACCTAGTGCAG”, the binding signal is 3810 fluorescence intensity (a.u.). The result for “GTCGCCGCCAATGGCCTCCTGACAAGGCCTCGTCTCGGTTCGGAGTCACCTAGTGCAG” reads 3540 fluorescence intensity (a.u.); that for “GCCTCCACCTCGCTGCTGCTCCGCCAGCTAGTAGCCGCCACGGAGTCACCTAGTGCAG”, 3350 fluorescence intensity (a.u.). The result for “GCTAGGGTGTGACATCCTTGCCCAGGGCTTAATAGGATTACGGAGTCACCTAGTGCAG” reads 3610 fluorescence intensity (a.u.); that for “CATCCATCCCGCGAGCGAGCAGGGCGCCGTCGTTCGTCCTCGGAGTCACCTAGTGCAG”, 3590 fluorescence intensity (a.u.); that for “GCGTGGTCCCACCTGCCATACCTACCCCGGCGAGGCGAGTCGGAGTCACCTAGTGCAG”, 3390 fluorescence intensity (a.u.). “CTTAATAACTTTCTCGGATTTAATGTGTGACTCACCATTCCGGAGTCACCTAGTGCAG”: the binding signal is 13700 fluorescence intensity (a.u.). On to “TTAATGACATATAGGACCCACATGAGTCAATGATGTGTGGCGGAGTCACCTAGTGCAG”, for which the binding signal was 3530 fluorescence intensity (a.u.). The result for “TGCTGTCACTGATCACTGGTGACTGCATCTAACTCTACTACGGAGTCACCTAGTGCAG” reads 3530 fluorescence intensity (a.u.); that for “GATGGGTTGCGACCCAGGGCAAGTCTGGTACGTGTGCACGCGGAGTCACCTAGTGCAG”, 3570 fluorescence intensity (a.u.); that for “ATCTCGCCCTCTCTGGACCATCACACCTACCCTGAAATCCCGGAGTCACCTAGTGCAG”, 3140 fluorescence intensity (a.u.). The result for “AACGTATGCTTGGTTGAGTTTTAATTATTACACACTTCAACGGAGTCACCTAGTGCAG” reads 3800 fluorescence intensity (a.u.); that for “GTTTGGGCACACTGACTGACTGGCGGGCCCCACGTGTCAGCGGAGTCACCTAGTGCAG”, 5930 fluorescence intensity (a.u.).

As for “AATCTGCCGTACTAAAATAAATAGAAAATATTTTATGGACCGGAGTCACCTAGTGCAG”, the binding signal is 17600 fluorescence intensity (a.u.). The result for “AACTTAAGTAGTGGATTGAACCTTACGTGGTACTGTACTACGGAGTCACCTAGTGCAG” reads 3790 fluorescence intensity (a.u.); that for “AATTCCCATTTCCGTCACGACTCTGACTGCCCTCGCTAATCGGAGTCACCTAGTGCAG”, 3320 fluorescence intensity (a.u.); that for “GCTAAAGTTTAGCAGGGCTGGGACGTCAGCGCCATGCTAACGGAGTCACCTAGTGCAG”, 3730 fluorescence intensity (a.u.). With “CTTTCTCGGTTGCTGCTCGGCTCGCGTGTCGCATATGACGCGGAGTCACCTAGTGCAG” the figure was 3830 fluorescence intensity (a.u.); with “CAAGACACGTACCGCATCTGGATAATGCCACCGGCAAGACCGGAGTCACCTAGTGCAG”, 3340 fluorescence intensity (a.u.); with “GCTTCGTCGACCACCTCCTCATCGTGGCGCTCGACGACGGCGGAGTCACCTAGTGCAG”, 3560 fluorescence intensity (a.u.). The result for “GCCGCCGCCTCATATCCCTCGTGACCTCGTCGCCGATCACCGGAGTCACCTAGTGCAG” reads 6270 fluorescence intensity (a.u.); that for “CCGTTAACACTAGTTGTTTCATATGTGATAGCGATATGTTCGGAGTCACCTAGTGCAG”, 21000 fluorescence intensity (a.u.); that for “AACCGAGCTCCGCAGCGAAGAGGAGTGTGGGGTTGAGGAACGGAGTCACCTAGTGCAG”, 3240 fluorescence intensity (a.u.).

“TTAAGTGATCAAATTAAGTTATCTCCTGATGACTTTGCAACGGAGTCACCTAGTGCAG”: the binding signal was 9120 fluorescence intensity (a.u.). In the case of “TTCCTCACCGGCCACGCCTCTCTCGCCACGCCTCTTCTCCCGGAGTCACCTAGTGCAG”, the binding signal was 3760 fluorescence intensity (a.u.).

Take “TATATAAGAGACCTCACCTCCAAGAATCTCCAGAGAGAGACGGAGTCACCTAGTGCAG”: the binding signal was 22900 fluorescence intensity (a.u.). With “GGTGGCGGGCGGAGGCGGGAGGGAGGTGACATGGATGGTCCGGAGTCACCTAGTGCAG” the figure was 8100 fluorescence intensity (a.u.); with “CGCCGACGAGCCATGGACTCCTGCATCGAAGCACTGCCACCGGAGTCACCTAGTGCAG”, 11000 fluorescence intensity (a.u.). Turning to “CGCCCCGCTGTAATCTCGTACCGCGTCATCTCGCGGAGACCGGAGTCACCTAGTGCAG”, the binding signal is 5650 fluorescence intensity (a.u.).

Consider “TGAAACCTTATGTAGTTATGCAACGTAAGAACCTGTTCGGCGGAGTCACCTAGTGCAG”, for which the binding signal is 3260 fluorescence intensity (a.u.).

As for “CAAGCCGACGTATCATGCTGACATGTCCCTCCGTCCCTCGCGGAGTCACCTAGTGCAG”, the binding signal was 10500 fluorescence intensity (a.u.). As to “GTCCTAAAGTACTTATTGTGTCCGGTTTTGGTTAGTTAAGCGGAGTCACCTAGTGCAG”, the binding signal is 3210 fluorescence intensity (a.u.).

(Values after paper PMC7819943, “Rice protein-binding microarrays: a tool to detect cis-acting elements near promoter regions in rice”.)
